No constants are given. Whether binding was seen depends on the method and setting. For some assays here: In cells and extracts the contact can be indirect. Some binding calls cover weakened binding; strength is not graded here.
Legend:
[1] = target: T1, 98 kDa shed form of SKI-1 (sSKI-1) (human, UniProt Q14703 187-996); test: the complex survives up to 1 M NaCl in immunoprecipitation and metal chelation purification; it dissociates only in RP-HPLC
T1 sequence: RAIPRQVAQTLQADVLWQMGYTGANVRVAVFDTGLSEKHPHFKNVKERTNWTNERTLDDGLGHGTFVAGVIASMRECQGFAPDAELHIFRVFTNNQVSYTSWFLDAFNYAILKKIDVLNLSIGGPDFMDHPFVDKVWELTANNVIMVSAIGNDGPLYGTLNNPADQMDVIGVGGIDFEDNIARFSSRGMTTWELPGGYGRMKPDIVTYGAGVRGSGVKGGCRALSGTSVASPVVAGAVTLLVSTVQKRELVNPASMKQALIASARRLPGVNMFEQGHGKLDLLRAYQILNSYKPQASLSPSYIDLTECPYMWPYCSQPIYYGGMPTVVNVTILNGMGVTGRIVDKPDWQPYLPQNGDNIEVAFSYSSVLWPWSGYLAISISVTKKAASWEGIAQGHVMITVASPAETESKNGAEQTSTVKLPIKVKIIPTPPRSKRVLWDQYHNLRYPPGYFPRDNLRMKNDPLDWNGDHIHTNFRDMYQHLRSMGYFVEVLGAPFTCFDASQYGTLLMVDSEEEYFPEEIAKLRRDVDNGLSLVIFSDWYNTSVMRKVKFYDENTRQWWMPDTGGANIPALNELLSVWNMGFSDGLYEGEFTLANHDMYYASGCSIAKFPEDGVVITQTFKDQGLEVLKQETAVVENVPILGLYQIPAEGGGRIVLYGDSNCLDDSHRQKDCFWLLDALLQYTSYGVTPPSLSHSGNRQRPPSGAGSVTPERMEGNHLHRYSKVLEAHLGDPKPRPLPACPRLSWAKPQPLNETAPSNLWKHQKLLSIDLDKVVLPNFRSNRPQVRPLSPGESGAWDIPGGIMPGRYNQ

BTMD-SKI-1 [2] = target: T2, BTMD-SKI-1 (human, UniProt Q14703 187-997); test: co-purification on metal affinity column, Western blot with Ab:S plus Ab:P
T2 construct: The construct encodes aa 1-997 plus hexa-His; It was secreted from VV-infected BSC40 or LoVo cells and used as concentrated medium or after metal chelation purification; The secreted enzyme stays associated with the ~14 kDa prosegment fragment; also called bSKI-1; BTMD-hSKI-1
T2 sequence: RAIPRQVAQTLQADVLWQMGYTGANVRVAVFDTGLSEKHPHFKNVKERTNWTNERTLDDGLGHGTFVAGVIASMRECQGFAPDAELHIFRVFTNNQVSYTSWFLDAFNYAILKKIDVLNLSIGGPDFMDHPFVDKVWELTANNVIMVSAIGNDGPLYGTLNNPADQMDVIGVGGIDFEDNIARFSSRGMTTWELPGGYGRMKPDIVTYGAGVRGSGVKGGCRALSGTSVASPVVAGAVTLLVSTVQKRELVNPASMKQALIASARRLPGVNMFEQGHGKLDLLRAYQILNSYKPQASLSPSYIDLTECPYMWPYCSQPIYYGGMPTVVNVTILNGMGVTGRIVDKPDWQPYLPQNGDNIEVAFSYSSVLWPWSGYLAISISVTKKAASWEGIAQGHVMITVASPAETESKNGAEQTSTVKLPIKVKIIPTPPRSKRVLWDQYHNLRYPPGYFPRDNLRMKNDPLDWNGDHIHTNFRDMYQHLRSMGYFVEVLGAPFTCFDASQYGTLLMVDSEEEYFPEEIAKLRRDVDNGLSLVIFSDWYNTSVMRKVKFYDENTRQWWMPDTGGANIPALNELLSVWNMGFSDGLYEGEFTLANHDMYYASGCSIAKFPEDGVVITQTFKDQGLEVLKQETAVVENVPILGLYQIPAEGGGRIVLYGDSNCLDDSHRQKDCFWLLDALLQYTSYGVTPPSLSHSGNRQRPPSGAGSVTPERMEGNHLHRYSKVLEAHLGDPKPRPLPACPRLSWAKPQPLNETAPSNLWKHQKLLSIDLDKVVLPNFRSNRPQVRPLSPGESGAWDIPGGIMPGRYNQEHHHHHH

BTMD-SKI-1 [3] = target: T2, BTMD-SKI-1; test: co-purification on metal affinity column, Western blot
BTMD-SKI-1 [4] = target: T2, BTMD-SKI-1; test: co-immunoprecipitation from media of [35S]Cys-labelled LoVo cells with Ab:P or Ab:S, denaturing conditions
[5] = target: T1, 98 kDa shed form of SKI-1 (sSKI-1); test: as above

Measured: binding

B1: ~14 kDa SKI-1 prosegment fragment (protein)
chain: GKKHLGDRLEKKSFEKAPCPGCSHLTLKVEFSSTVVEYEYIVAFNGYFTAKARNSFISSALKSSEVDNWRIIPRNNPSSDYPSDFEVIQIKEKQKAGLLTLEDHPNIKRVTPQRKVFRSL
binds: all assays above
